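Human melanoma cell lines in 1,536-well plates were treated with a pair of drugs for 72 h, then fixed, stained and imaged. Each value is the count of nuclei relative to DMSO-treated wells, in %, so that 100 equals the control. Every drug was used at one fixed concentration, the lower of two screened (a fifth of the higher). These are primary screening values without error estimates.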
An unselected part of the screen is shown.
An entry leaves out what has no value listed here.
A dash means that no value is listed here.

Drug key:
fludarabine: Nc1nc(F)nc2c1ncn2[C@@H]1O[C@H](CO)[C@@H](O)[C@@H]1O at 0.2 µM
ruxolitinib: N#CC[C@H](C1CCCC1)n1cc(-c2ncnc3[nH]ccc23)cn1 at 1 µM
BI-D1870: CC(C)CCN1c2nc(Nc3cc(F)c(O)c(F)c3)ncc2N(C)C(=O)C1C (stereo not drawn) at 0.2 µM
YM155: COCC[n+]1c2c(n(Cc3cnccn3)c1C)C(=O)c1ccccc1C2=O at 0.0004 µM
ABT-263: CC1(C)CCC(c2ccc(Cl)cc2)=C(CN2CCN(c3ccc(C(=O)NS(=O)(=O)c4ccc(N[C@H](CCN5CCOCC5)CSc5ccccc5)c(S(=O)(=O)C(F)(F)F)c4)cc3)CC2)C1 at 0.4 µM
PF-562271: CN(c1ncccc1CNc1nc(Nc2ccc3c(c2)CC(=O)N3)ncc1C(F)(F)F)S(C)(=O)=O at 0.08 µM
vincristine: CC[C@]1(O)C[C@H]2CN(CCc3c([nH]c4ccccc34)[C@@](C(=O)OC)(c3cc4c(cc3OC)N(C=O)[C@H]3[C@@](O)(C(=O)OC)[C@H](OC(C)=O)[C@]5(CC)C=CCN6CC[C@]43[C@@H]65)C2)C1 at 0.0001 µM
sunitinib: CCN(CC)CCNC(=O)c1c(C)[nH]c(/C=C2\C(=O)Nc3ccc(F)cc32)c1C at 0.4 µM
pioglitazone: CCc1ccc(CCOc2ccc(CC3SC(=O)NC3=O)cc2)nc1 (stereo not drawn) at 2 µM
enzastaurin: Cn1cc(C2=C(c3cn(C4CCN(Cc5ccccn5)CC4)c4ccccc34)C(=O)NC2=O)c2ccccc21 at 0.8 µM
CHIR-265: Cn1c(Nc2ccc(C(F)(F)F)cc2)nc2cc(Oc3ccnc(-c4ncc(C(F)(F)F)[nH]4)c3)ccc21 at 0.08 µM
vorinostat: O=C(CCCCCCC(=O)Nc1ccccc1)NO at 0.08 µM
TCS401: O=C(O)C(=O)Nc1sc2c(c1C(=O)O)CCNC2 at 1.67 µM
STA-4783: CN(NC(=O)CC(=O)NN(C)C(=S)c1ccccc1)C(=S)c1ccccc1 at 0.006 µM
embelin: CCCCCCCCCCCC1=C(O)C(=O)C=C(O)C1=O at 1.2 µM
U73122: COc1ccc2c(c1)CCC1C2CCC2(C)C(NCCCCCCN3C(=O)C=CC3=O)CCC12 (stereo not drawn) at 0.4 µM
lestaurtinib: C[C@]12O[C@H](C[C@]1(O)CO)n1c3ccccc3c3c4c(c5c6ccccc6n2c5c31)CNC4=O at 0.004 µM
ENMD-2076: Cc1cc(Nc2cc(N3CCN(C)CC3)nc(/C=C/c3ccccc3)n2)n[nH]1 at 0.04 µM
tamatinib: COc1cc(Nc2ncc(F)c(Nc3ccc4c(n3)NC(=O)C(C)(C)O4)n2)cc(OC)c1OC at 0.4 µM
BMS-536924: Cc1cc(N2CCOCC2)cc2[nH]c(-c3c(NC[C@@H](O)c4cccc(Cl)c4)cc[nH]c3=O)nc12 at 0.2 µM

| Combination | A375 | IST-MEL1 | A101D | MEL-HO | COLO 792 | LB2518-MEL | G-361 | C32 | COLO 800 | IPC-298 |
|---|---|---|---|---|---|---|---|---|---|---|
| ABT-263 + PF-562271 | 59.1 | 74.0 | 52.6 | 69.5 | 33.2 | 91.4 | 81.6 | 42.4 | 77.6 | 99.4 |
| BI-D1870 + ENMD-2076 | - | 101 | 78.3 | 86.2 | 90.6 | 107 | 86.1 | 99.6 | 54.8 | 82.5 |
| vorinostat + sunitinib | 84.9 | 98.7 | 87.2 | 110 | 105 | 108 | 104 | 94.3 | 100 | 96.6 |
| fludarabine + enzastaurin | 22.3 | 92.0 | 96.6 | 92.4 | 87.8 | 93.1 | 91.8 | 104 | 119 | 99.0 |
| YM155 + pioglitazone | 87.7 | 86.7 | 96.8 | 91.4 | 80.4 | 77.3 | 87.4 | 97.8 | 117 | 94.5 |
| fludarabine + embelin | - | 96.4 | 96.5 | 96.7 | 80.7 | 98.4 | 105 | 90.1 | 87.3 | 94.7 |
| fludarabine + tamatinib | 17.9 | 90.7 | 84.4 | 98.3 | 69.7 | 58.6 | 91.2 | 97.2 | 95.2 | 83.3 |
| YM155 + vincristine | 72.5 | 90.3 | 66.7 | 91.7 | 102 | 96.2 | 109 | 94.2 | 73.7 | 93.6 |
| lestaurtinib + CHIR-265 | 68.6 | 105 | 62.2 | 84.6 | 53.4 | - | 83.1 | 87.3 | 81.2 | 68.4 |
| ABT-263 + lestaurtinib | 70.0 | 85.4 | 61.4 | 84.5 | 65.7 | 102 | 82.8 | 77.3 | 43.2 | 94.2 |
| BMS-536924 + YM155 | 62.7 | 73.6 | 92.6 | 97.3 | 84.3 | 73.2 | 82.5 | 90.3 | 37.5 | 78.1 |
| pioglitazone + STA-4783 | 55.9 | 84.5 | 89.5 | 86.3 | 81.6 | 76.6 | 76.2 | 75.7 | 54.2 | 103 |
| YM155 + BI-D1870 | 94.7 | 94.2 | 96.8 | 97.5 | 94.0 | 79.9 | 108 | 100 | 90.9 | 91.4 |
| TCS401 + pioglitazone | 118 | 97.8 | 97.2 | 108 | 90.8 | - | 101 | 99.0 | 88.2 | 97.6 |
| CHIR-265 + TCS401 | 61.2 | 90.1 | 61.4 | 102 | 56.8 | 57.1 | 79.0 | 96.8 | 86.0 | 54.5 |
| fludarabine + ruxolitinib | 21.0 | 91.2 | 103 | 102 | 103 | 113 | 96.5 | 92.9 | 157 | 93.2 |
| ENMD-2076 + tamatinib | 94.7 | 97.3 | 98.2 | 93.6 | 56.8 | 85.7 | 92.2 | 98.6 | 63.3 | 79.0 |
| U73122 + sunitinib | - | 97.4 | 87.5 | 101 | 84.8 | 109 | 94.4 | 91.4 | 52.8 | 95.1 |
| TCS401 + tamatinib | 74.4 | 103 | 81.9 | 86.9 | 60.6 | 82.3 | 93.0 | 88.8 | 141 | 86.8 |
| ABT-263 + fludarabine | 7.4 | 75.3 | 43.0 | 86.8 | 57.2 | - | 68.0 | 28.1 | 56.5 | 94.8 |

For reference, 2 entries once more:

{"combination": "pioglitazone + STA-4783", "A375": 55.9, "IST-MEL1": 84.5, "A101D": 89.5, "MEL-HO": 86.3, "COLO 792": 81.6, "LB2518-MEL": 76.6, "G-361": 76.2, "C32": 75.7, "COLO 800": 54.2, "IPC-298": 103}
{"combination": "lestaurtinib + CHIR-265", "A375": 68.6, "IST-MEL1": 105, "A101D": 62.2, "MEL-HO": 84.6, "COLO 792": 53.4, "G-361": 83.1, "C32": 87.3, "COLO 800": 81.2, "IPC-298": 68.4}

Source: doi:10.1371/journal.pone.0140310, primary screening data, rounded.